Laboratory results from US20160369115A1, “POLARIZING PLATE COMPOSITION, POLARIZING PLATE PROTECTIVE FILM, POLARIZER, POLARIZING PLATE, LIQUID CRYSTAL DISPLAY DEVICE, AND COMPOUND USED IN THE LIQUID CRYSTAL DISPLAY DEVICE” (FUJIFILM Corporation, priority 2014, published 2016).
Some compounds share one wording; it may come from a single statement. Some compounds share one range, which may span the group rather than tell each member.

Tests used:
[1] = Durability evaluation of polarizing plate, additive in polarizing plate protective film (Example 1); conditions: additive in protective film: Cellulose acylate, 25 μm, added amount 4.0 per 100 parts by mass of film resin; 410 nm
[2] = Evaluation of light-fast adhesiveness of polarizing plate protective film with hardcoat layer; conditions: additive in protective film: Cellulose acylate, 25 μm, added amount 4.0 per 100 parts by mass of film resin; light 96 hours, 60° C., 50% RH

## CCOC(=O)Oc1c(Cc2ccccc2)c(=O)n(-c2ccccc2)c(=O)n1-c1ccccc1 [Example compound C]
[1]
  Durability of polarizer: amount of change of orthogonal transmittance (%) 60° C., 95%, 500 hours: A+ (The amount of change of the orthogonal transmittance before and after the elapse of time was less than 0.4%.)
  Durability of polarizer: amount of change of orthogonal transmittance (%) 60° C., 95%, 1,000 hours: A+ (The amount of change of the orthogonal transmittance before and after the elapse of time was less than 1.0%.)
  Durability of polarizer: amount of change of orthogonal transmittance (%) 80° C., Dry 500 hours: A+ (The amount of change of the orthogonal transmittance before and after the elapse of time was less than 0.1%.)
  Durability of polarizer: amount of change of orthogonal transmittance (%) 80° C., Dry, 1,000 hours: A+ (The amount of change of the orthogonal transmittance before and after the elapse of time was less than 0.5%.)
[2]
  Light-fast adhesiveness: A (The number of cells peeled off among 100 cells was equal to or less than 10.)

## COC(=O)Oc1c(Cc2ccc(B(O)O)cc2)c(=O)n(-c2ccccc2)c(=O)n1Cc1ccccc1 [Example compound AAJ]
[1]
  Durability of polarizer: amount of change of orthogonal transmittance (%) 60° C., 95%, 500 hours: A+ (The amount of change of the orthogonal transmittance before and after the elapse of time was less than 0.4%.)
  Durability of polarizer: amount of change of orthogonal transmittance (%) 60° C., 95%, 1,000 hours: A+ (The amount of change of the orthogonal transmittance before and after the elapse of time was less than 1.0%.)
  Durability of polarizer: amount of change of orthogonal transmittance (%) 80° C., Dry 500 hours: A+ (The amount of change of the orthogonal transmittance before and after the elapse of time was less than 0.1%.)
  Durability of polarizer: amount of change of orthogonal transmittance (%) 80° C., Dry, 1,000 hours: A+ (The amount of change of the orthogonal transmittance before and after the elapse of time was less than 0.5%.)
[2]
  Light-fast adhesiveness: A (The number of cells peeled off among 100 cells was equal to or less than 10.)

## CC(C)[Si](Oc1c(Cc2ccccc2)c(=O)n(-c2ccccc2)c(=O)n1Cc1ccccc1)(C(C)C)C(C)C [Example compound K]
[1]
  Durability of polarizer: amount of change of orthogonal transmittance (%) 60° C., 95%, 500 hours: A+ (The amount of change of the orthogonal transmittance before and after the elapse of time was less than 0.4%.)
  Durability of polarizer: amount of change of orthogonal transmittance (%) 60° C., 95%, 1,000 hours: A+ (The amount of change of the orthogonal transmittance before and after the elapse of time was less than 1.0%.)
  Durability of polarizer: amount of change of orthogonal transmittance (%) 80° C., Dry 500 hours: A+ (The amount of change of the orthogonal transmittance before and after the elapse of time was less than 0.1%.)
  Durability of polarizer: amount of change of orthogonal transmittance (%) 80° C., Dry, 1,000 hours: A+ (The amount of change of the orthogonal transmittance before and after the elapse of time was less than 0.5%.)
[2]
  Light-fast adhesiveness: A (The number of cells peeled off among 100 cells was equal to or less than 10.)

## CCC(C)(C)c1ccc(OCCCC(=O)O)c(C(C)(C)CC)c1 [Organic acid 4, reference compound]
[1]
  Durability of polarizer: amount of change of orthogonal transmittance (%) 60° C., 95%, 500 hours: A (The amount of change of the orthogonal transmittance before and after the elapse of time was equal to or greater than 0.4% and less than 0.6%.)
  Durability of polarizer: amount of change of orthogonal transmittance (%) 60° C., 95%, 1,000 hours: A (The amount of change of the orthogonal transmittance before and after the elapse of time was equal to or greater than 1.0% and less than 1.4%.)
  Durability of polarizer: amount of change of orthogonal transmittance (%) 80° C., Dry 500 hours: A (The amount of change of the orthogonal transmittance before and after the elapse of time was equal to or greater than 0.1% and less than 0.3%.)
  Durability of polarizer: amount of change of orthogonal transmittance (%) 80° C., Dry, 1,000 hours: A (The amount of change of the orthogonal transmittance before and after the elapse of time was equal to or greater than 0.5% and less than 0.8%.)
[2]
  Light-fast adhesiveness: C (The number of cells peeled off among 100 cells was 21 to 30.)

## CC(C)(C)[Si](C)(C)Oc1c(C2CCCCC2)c(=O)n(-c2ccccc2)c(=O)n1-c1ccccc1 [Example compound I]
[1]
  Durability of polarizer: amount of change of orthogonal transmittance (%) 60° C., 95%, 500 hours: A+ (The amount of change of the orthogonal transmittance before and after the elapse of time was less than 0.4%.)
  Durability of polarizer: amount of change of orthogonal transmittance (%) 60° C., 95%, 1,000 hours: A+ (The amount of change of the orthogonal transmittance before and after the elapse of time was less than 1.0%.)
  Durability of polarizer: amount of change of orthogonal transmittance (%) 80° C., Dry 500 hours: A+ (The amount of change of the orthogonal transmittance before and after the elapse of time was less than 0.1%.)
  Durability of polarizer: amount of change of orthogonal transmittance (%) 80° C., Dry, 1,000 hours: A+ (The amount of change of the orthogonal transmittance before and after the elapse of time was less than 0.5%.)
[2]
  Light-fast adhesiveness: A (The number of cells peeled off among 100 cells was equal to or less than 10.)

## CC(C)(C)OC(=O)Oc1c(Cc2ccccc2)c(=O)n(-c2ccccc2)c(=O)n1Cc1ccccc1 [Example compound E]
[1]
  Durability of polarizer: amount of change of orthogonal transmittance (%) 60° C., 95%, 500 hours: A+ (The amount of change of the orthogonal transmittance before and after the elapse of time was less than 0.4%.)
  Durability of polarizer: amount of change of orthogonal transmittance (%) 60° C., 95%, 1,000 hours: A+ (The amount of change of the orthogonal transmittance before and after the elapse of time was less than 1.0%.)
  Durability of polarizer: amount of change of orthogonal transmittance (%) 80° C., Dry 500 hours: A+ (The amount of change of the orthogonal transmittance before and after the elapse of time was less than 0.1%.)
  Durability of polarizer: amount of change of orthogonal transmittance (%) 80° C., Dry, 1,000 hours: A+ (The amount of change of the orthogonal transmittance before and after the elapse of time was less than 0.5%.)
[2]
  Light-fast adhesiveness: A (The number of cells peeled off among 100 cells was equal to or less than 10.)

## O=P(O)(Oc1ccccc1)Oc1ccccc1 [Organic acid 3, reference compound]
[1]
  Durability of polarizer: amount of change of orthogonal transmittance (%) 60° C., 95%, 500 hours: B (The amount of change of the orthogonal transmittance before and after the elapse of time was equal to or greater than 0.6% and less than 0.8%.)
  Durability of polarizer: amount of change of orthogonal transmittance (%) 60° C., 95%, 1,000 hours: B (The amount of change of the orthogonal transmittance before and after the elapse of time was equal to or greater than 1.4% and less than 1.6%.)
  Durability of polarizer: amount of change of orthogonal transmittance (%) 80° C., Dry 500 hours: B (The amount of change of the orthogonal transmittance before and after the elapse of time was equal to or greater than 0.3% and less than 0.5%.)
  Durability of polarizer: amount of change of orthogonal transmittance (%) 80° C., Dry, 1,000 hours: B (The amount of change of the orthogonal transmittance before and after the elapse of time was equal to or greater than 0.8% and less than 1.0%.)
[2]
  Light-fast adhesiveness: B (The number of cells peeled off among 100 cells was 11 to 20.)

## COC(=O)Oc1c(Cc2ccc(C=O)cc2)c(=O)n(-c2ccccc2)c(=O)n1Cc1ccccc1 [Example compound AAA]
[1]
  Durability of polarizer: amount of change of orthogonal transmittance (%) 60° C., 95%, 500 hours: A+ (The amount of change of the orthogonal transmittance before and after the elapse of time was less than 0.4%.)
  Durability of polarizer: amount of change of orthogonal transmittance (%) 60° C., 95%, 1,000 hours: A+ (The amount of change of the orthogonal transmittance before and after the elapse of time was less than 1.0%.)
  Durability of polarizer: amount of change of orthogonal transmittance (%) 80° C., Dry 500 hours: A+ (The amount of change of the orthogonal transmittance before and after the elapse of time was less than 0.1%.)
  Durability of polarizer: amount of change of orthogonal transmittance (%) 80° C., Dry, 1,000 hours: A+ (The amount of change of the orthogonal transmittance before and after the elapse of time was less than 0.5%.)
[2]
  Light-fast adhesiveness: A (The number of cells peeled off among 100 cells was equal to or less than 10.)

## Cc1ccc(S(=O)(=O)Oc2c(Cc3ccccc3)c(=O)n(-c3ccccc3)c(=O)n2-c2ccccc2)cc1 [Example compound N]
[1]
  Durability of polarizer: amount of change of orthogonal transmittance (%) 60° C., 95%, 500 hours: A (The amount of change of the orthogonal transmittance before and after the elapse of time was equal to or greater than 0.4% and less than 0.6%.)
  Durability of polarizer: amount of change of orthogonal transmittance (%) 60° C., 95%, 1,000 hours: A+ (The amount of change of the orthogonal transmittance before and after the elapse of time was less than 1.0%.)
  Durability of polarizer: amount of change of orthogonal transmittance (%) 80° C., Dry 500 hours: A (The amount of change of the orthogonal transmittance before and after the elapse of time was equal to or greater than 0.1% and less than 0.3%.)
  Durability of polarizer: amount of change of orthogonal transmittance (%) 80° C., Dry, 1,000 hours: A+ (The amount of change of the orthogonal transmittance before and after the elapse of time was less than 0.5%.)
[2]
  Light-fast adhesiveness: A (The number of cells peeled off among 100 cells was equal to or less than 10.)

## COC(=O)Oc1[nH]c(=O)n(Cc2ccc(B(O)O)cc2)c(=O)c1Cc1ccccc1 [Example compound AAK]
[1]
  Durability of polarizer: amount of change of orthogonal transmittance (%) 60° C., 95%, 500 hours: A+ (The amount of change of the orthogonal transmittance before and after the elapse of time was less than 0.4%.)
  Durability of polarizer: amount of change of orthogonal transmittance (%) 60° C., 95%, 1,000 hours: A+ (The amount of change of the orthogonal transmittance before and after the elapse of time was less than 1.0%.)
  Durability of polarizer: amount of change of orthogonal transmittance (%) 80° C., Dry 500 hours: A+ (The amount of change of the orthogonal transmittance before and after the elapse of time was less than 0.1%.)
  Durability of polarizer: amount of change of orthogonal transmittance (%) 80° C., Dry, 1,000 hours: A+ (The amount of change of the orthogonal transmittance before and after the elapse of time was less than 0.5%.)
[2]
  Light-fast adhesiveness: A (The number of cells peeled off among 100 cells was equal to or less than 10.)

## COC(=O)Oc1[nH]c(=O)n(Cc2ccc(C=O)cc2)c(=O)c1C=O [Example compound AAU]
[1]
  Durability of polarizer: amount of change of orthogonal transmittance (%) 60° C., 95%, 500 hours: A+ (The amount of change of the orthogonal transmittance before and after the elapse of time was less than 0.4%.)
  Durability of polarizer: amount of change of orthogonal transmittance (%) 60° C., 95%, 1,000 hours: A+ (The amount of change of the orthogonal transmittance before and after the elapse of time was less than 1.0%.)
  Durability of polarizer: amount of change of orthogonal transmittance (%) 80° C., Dry 500 hours: A+ (The amount of change of the orthogonal transmittance before and after the elapse of time was less than 0.1%.)
  Durability of polarizer: amount of change of orthogonal transmittance (%) 80° C., Dry, 1,000 hours: A+ (The amount of change of the orthogonal transmittance before and after the elapse of time was less than 0.5%.)
[2]
  Light-fast adhesiveness: A (The number of cells peeled off among 100 cells was equal to or less than 10.)
